From article PMC8456271
These are yes or no findings as the source states them, for the method shown. Binding seen in cells or lysates may run through a third protein. Binding calls can cover weak binding; strength is not graded here. For part of these data: Where a sequence is shown, tags or fusion partners need not be part of it. Blank lines part the entries; values can stand above or below the molecule they belong to.

Assays:
[1] = biological target: T1, DDIT4 (endogenous, murine liver) (mouse (endogenous in murine liver)) (UniProt Q9D3F7); experiment: co-IP; livers of C57/BL mice fed an MCD diet for 4 weeks; IP with anti‐DDIT4, endogenous proteins
T1 sequence: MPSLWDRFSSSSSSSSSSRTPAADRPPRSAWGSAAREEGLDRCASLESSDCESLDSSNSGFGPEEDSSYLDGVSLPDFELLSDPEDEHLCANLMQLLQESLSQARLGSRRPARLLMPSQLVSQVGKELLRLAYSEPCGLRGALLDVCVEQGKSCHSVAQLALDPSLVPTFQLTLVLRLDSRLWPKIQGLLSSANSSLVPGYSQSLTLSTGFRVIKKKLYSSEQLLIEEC

[2] = biological target: T2, FLAG‐tagged WT DDIT4 (DNA damage‐induced transcript 4) (UniProt Q9NX09); experiment: co-IP; primary murine hepatocytes infected with Ad‐FLAG‐DDIT4, PA (0.4 × 10^−3 M) for 12 h; IP with anti‐FLAG
T2 sequence: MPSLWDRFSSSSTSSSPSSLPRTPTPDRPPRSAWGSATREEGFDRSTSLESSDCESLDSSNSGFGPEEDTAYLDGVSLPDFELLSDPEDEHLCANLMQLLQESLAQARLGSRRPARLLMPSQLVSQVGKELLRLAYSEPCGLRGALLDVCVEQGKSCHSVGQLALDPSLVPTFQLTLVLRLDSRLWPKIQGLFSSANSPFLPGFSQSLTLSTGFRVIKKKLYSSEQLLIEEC

[3] = biological target: p38 (endogenous, mouse) (mouse (endogenous in primary murine hepatocytes and murine liver)); experiment: co-IP; livers of C57/B6 mice injected with adenovirus carrying DDIT4 shRNA or control adenovirus, MCD feeding for 4 weeks; IP with anti‐p38, endogenous proteins

binding [1]: binds
Molecule: p38 (endogenous, mouse)
binding [2]: binds

binding [3]: binds
B1: MKK3 (endogenous, mouse) (protein, UniProt O09110 1-347)
chain: MESPAASPPASLPQTKGKSKRKKDLRISCVSKPPVSNPTPPRNLDSRTFITIGDRNFEVEADDLVTISELGRGAYGVVEKVRHAQSGTIMAVKRIRATVNTQEQKRLLMDLDINMRTVDCFYTVTFYGALFREGDVWICMELMDTSLDKFYRKVLEKNMKIPEDILGEIAVSIVRALEHLHSKLSVIHRDVKPSNVLINKEGHVKMCDFGISGYLVDSVAKTMDAGCKPYMAPERINPELNQKGYNVKSDVWSLGITMIEMAILRFPYESWGTPFQQLKQVVEEPSPQLPADQFSPEFVDFTSQCLRKNPAERMSYLELMEHPFFTLHKTKKTDIAAFVKEILGEDS
